Out of some 300,000 compounds screened, about 5,400 (1.8%) were called active. Inconclusive means that the source gave no clear call. Such entries were picked first, then a sample of the others. The call rests on the fitted dose curve; tested in HEK293 cells. Where the call is inconclusive, the potency comes from a doubtful curve fit.
Assay: qHTS for inhibitors of binding or entry into cells for Marburg Virus
Conditions: Marburg virus pseudotyped entry inhibition, cell reporter; series mostly up to 37.8 µM
With `O=C(NCC1CCCO1)c1cc(-c2ccc(Cl)cc2Cl)on1` (centres undefined) the Potency was inconclusive: 8.91 µM [inhibitor, partial curve]. In the case of `COc1ccc2nc(N3CCN(C(=O)c4ccc([N+](=O)[O-])o4)CC3)sc2c1`, the Potency is reported as inconclusive: 35.5 µM [inhibitor, single point]. For `Cc1nc(N2CCN(c3ccccc3)CC2)nc2c1C(=O)CC(C)C2` (centres undefined), the Potency was inconclusive: 20.6 µM [inhibitor, single point]. With `CC(C)CCOc1ccc(C(=O)NN2C(=O)NC3(CCCCC3)C2=O)cc1` the Potency was inconclusive: 35.5 µM [activator, single point]. In the case of `CC(=O)c1cccc(NC(=O)c2cc(-c3ccco3)nc3ccccc23)c1`, the Potency is reported as inconclusive: 22.4 µM [inhibitor, single point]. With `Cc1cc(NC(=O)CSCC(=O)Nc2ccccc2Oc2ccccc2)no1` the Potency was active: 2.82 µM. For `CN(C)c1ccc(N/C=C/C(=O)c2ccc(F)cc2)cc1`, the Potency was inconclusive: 5.8 µM [activator, single point]. With `COc1ccc(C(=O)c2coc3c2C(=O)C(=O)c2ccccc2-3)cc1` the Potency was inconclusive: 35.5 µM [inhibitor, single point]. With `Oc1[nH]c2ccc(Br)cc2c1N=Nc1ccc(C(F)(F)F)cn1` the Potency was “inactive”. In the case of `CC(=O)Nc1ccc(NC(=O)c2c(C)nn(Cc3ccccc3Cl)c2C)cc1`, the Potency is reported as inconclusive: 6.31 µM [activator, single point]. In the case of `Cc1ccc(S(=O)(=O)N(C)CCCC(=O)Nc2cc(C)ccc2C)cc1`, the Potency is reported as inconclusive: 13 µM [inhibitor, partial curve, poor fit]. In the case of `O=C(CSc1nc2ccccc2c(=O)n1-c1ccc(F)cc1F)Nc1ccc2c(c1)CCC2`, the Potency is reported as inconclusive: 29.1 µM [inhibitor, single point]. In the case of `Cc1ccc(-c2nnc(-c3ccc4ccccc4c3)o2)cc1`, the Potency is reported as inconclusive: 0.631 µM [activator, single point]. With `COc1cc(NC(=O)c2ccc3c(Cl)c4c(nc3c2)CCC4)cc(OC)c1OC` the Potency was inconclusive: 12.6 µM [activator, single point]. In the case of `O=C(NCC(c1cccs1)N1CCOCC1)c1cn(-c2ccccc2)nc1-c1ccccc1` (centres undefined), the Potency is reported as active: 12.6 µM. With `Cc1csc(NC(=O)c2cccc(S(=O)(=O)N3CCN(C)CC3)c2)n1` the Potency was “inactive”. In the case of `Nc1nc(COc2ccccc2)cs1`, the Potency is reported as “inactive”. In the case of `Cc1cc(C(=O)N2CCCC(C(=O)c3ccc4ccccc4c3)C2)nn1C` (centres undefined), the Potency is reported as inconclusive: 35.5 µM [inhibitor, single point]. In the case of `CCOc1ccccc1Nc1nc(-c2sc(C)nc2C)cs1`, the Potency is reported as inconclusive: 35.5 µM [inhibitor, single point].

Source: PubChem BioAssay AID540276 (National Center for Advancing Translational Sciences (NCATS), 2011)
Potency means the concentration at half of the fitted maximal effect.
